The text below walks through data of patent US20130251724A1.

Results are given in words; binding and its absence hold for the method and conditions named. Binding calls can cover weak binding; strength is not graded here.

The target of the assay is Marmoset OSM (marmoset). In words: Kinexa solution phase affinity.

B1: 15E10h, non-competitive anti-OSM humanised antibody (antibody, human IgG1, kappa, V domains shown)
VH: QVQLVESGGGVVQPGRSLRLSCAASGFSLTNYGVHWVRQAPGKGLEWVAVIWRGGSTDYNAAFMSRFTISKDNSKNTLYLQMNSLRAEDTAVYYCAKSPNSNFYWYFDVWGRGTLVTVSS
VL: EIVLTQSPATLSLSPGERATLSCSGSSSVSYMYWYQQKPGQAPRLLIEDTSNLASGIPARFSGSGSGTDYTLTISNLEPEDFAVYYCQQWSSYPPTFGQGTKLEIKR
With B1, the binding entry is “binds”.
